For 7 compounds, T/C and survivor count results are on record in PubChem BioAssay AID330 (DTP/NCI, 2004).

The list shows only some results of the screen, not a fair sample: it is rich in T/C values a quarter to a half above the control, in often repeated tests (any T/C) and in doses without a T/C. Further doses and runs are listed elsewhere. T/C gives the treated animals as a percentage of the vehicle group. Some entries give survivors of the animals treated and no T/C: the source files T/C as zero there, which appears to mark a toxic dose or a test without result, not a measured value. Some survivor counts are full or nearly so, which does not show that the dose was tolerated: survival well below the control is almost never listed, so the zero probably covers shortened survival too. Survivors were counted at the toxicity check, usually on the fifth day, unless a day is given; later deaths do not show. Schedule codes are those of the source, taken here to give the interval after Q, in days (D) or hours (H), and the number of doses after X. Additions like (4×) say how often a value occurs here. Some doses were run more than once; the results are listed from low to high. For survival time, the PubChem record calls one and a half times the control and up active, and a quarter to a half above the control has no call in these data; cut-offs in other NCI protocols can differ. Some T/C values are followed by the survivors on the day toxicity was checked, most often the fifth; where none is given, no animal had died by that day.

This test deals with P388 leukemia ip, CD2F1 mice, survival T/C. As to the kind of experiment: NCI In Vivo Anticancer Drug Screen. Data for tumor model P388 Leukemia (intraperitoneal) in CD2F1 (CDF1) mice. The following applies: T/C endpoint: median survival time, higher T/C = longer survival.
Where [1] appears, read: dose: 50.0 mg/kg/injection, schedule: Q01DX009 (ip), vehicle: suspension in saline.
The mark [2] stands for this setting: dose: 100.0 mg/kg/injection, schedule: Q01DX009 (ip), vehicle: suspension in saline.
Where [3] appears, read: dose: 120.0 mg/kg/injection, schedule: Q01DX005 (ip), vehicle: Klucel (hydroxypropylcellulose) (HPC).
Where [4] appears, read: dose: 240.0 mg/kg/injection, schedule: Q01DX005 (ip), vehicle: Klucel (hydroxypropylcellulose) (HPC).

Take `O=c1n(CC2CO2)c(=O)n(CC2CO2)c(=O)n1CC1CO1` (centres undefined): the T/C runs as follows: (dose: 6.25 mg/kg/injection, schedule: Q01DX009 (ip), vehicle: suspension in saline) 139 and 148 % of control; (dose: 7.5 mg/kg/injection, schedule: Q01DX005 (ip), vehicle: saline) 136 % of control; (dose: 12.5 mg/kg/injection, schedule: Q01DX009 (ip), vehicle: suspension in saline) 135, 156, 165, 177 % of control; (dose: 22.0 mg/kg/injection, schedule: Q01DX005 (ip), vehicle: saline with Tween-80, evaluated on day 45) 210, 218, 233 % of control; (dose: 22.0 mg/kg/injection, schedule: Q01DX005 (ip), vehicle: saline with Tween-80, evaluated on day 60) 209, 211, 215, 227, 235, 244, 271 % of control; (dose: 25.0 mg/kg/injection, schedule: Q01DX009 (ip), vehicle: suspension in saline) 155, 166, 229, 233 % of control. The T/C is, setting by setting: (dose: 33.0 mg/kg/injection, schedule: Q01DX005 (ip), vehicle: saline with Tween-80, evaluated on day 45) 255, 290, 388 % of control; (dose: 33.0 mg/kg/injection, schedule: Q01DX005 (ip), vehicle: saline with Tween-80, evaluated on day 60) 261, 292, 362, 366, 427, 560, 594 % of control; (dose: 50.0 mg/kg/injection, schedule: Q01DX005 (ip), vehicle: saline with Tween-80, evaluated on day 45) 114, 436, 450 % of control; (dose: 50.0 mg/kg/injection, schedule: Q01DX005 (ip), vehicle: saline with Tween-80, evaluated on day 60) 90, 311, 435, 550, 560, 566, 588 % of control; under setting [1], 184, 235, 291 % of control (2×); under setting [2], 145, 238, 247 % of control. Besides, the survivor count is 0 of 6 (dose: 50.0 mg/kg/injection, schedule: Q01DX009 (ip), vehicle: lactic acid); 9 of 10 under setting [1]; 7 of 8 (dose: 60.0 mg/kg/injection, schedule: Q01DX005 (ip), vehicle: saline); 10 of 10 (dose: 75.0 mg/kg/injection, schedule: Q01DX005 (ip), vehicle: saline with Tween-80); 0 of 6 (dose: 100.0 mg/kg/injection, schedule: Q01DX009 (ip), vehicle: lactic acid); 5 of 6 (2×) (dose: 100.0 mg/kg/injection, schedule: Q01DX009 (ip), vehicle: saline). In addition, the survivor count runs as follows: under setting [2], 4 of 10, 5 of 10, 8 of 10; (dose: 110.0 mg/kg/injection, schedule: Q01DX001 (ip), vehicle: saline) 3 of 6; (dose: 120.0 mg/kg/injection, schedule: Q01DX005 (ip), vehicle: saline) 3 of 8; (dose: 200.0 mg/kg/injection, schedule: Q01DX009 (ip), vehicle: lactic acid) 0 of 6; (dose: 200.0 mg/kg/injection, schedule: Q01DX009 (ip), vehicle: saline) 3 of 6 and 6 of 6; (dose: 200.0 mg/kg/injection, schedule: Q01DX009 (ip), vehicle: suspension in saline) 0 of 10, 4 of 10, 5 of 10.

For `O=C(CBr)Nc1ncc([N+](=O)[O-])s1`, the survivor count is 2 of 6 (dose: 25.0 mg/kg/injection, schedule: Q01DX009 (ip), vehicle: Klucel (hydroxypropylcellulose) (HPC)); 0 of 6 (dose: 50.0 mg/kg/injection, schedule: Q01DX009 (ip), vehicle: Klucel (hydroxypropylcellulose) (HPC)); 0 of 6 (dose: 100.0 mg/kg/injection, schedule: Q01DX009 (ip), vehicle: Klucel (hydroxypropylcellulose) (HPC)); 0 of 6 (dose: 200.0 mg/kg/injection, schedule: Q01DX009 (ip), vehicle: Klucel (hydroxypropylcellulose) (HPC)).

On to `Cc1cc2c(C)c(-c3ccccc3)c(=O)oc2c(C#N)c1C`, for which the survivor count was 6 of 6 under setting [3] and 5 of 6 under setting [4].

In the case of `Cc1ccc(NN=O)nc1`, where the note is “dose: 3.12 mg/kg/injection, schedule: Q01DX009 (ip), vehicle: water”, the T/C is 128 and 134 % of control. Also, the survivor count (dose: 25.0 mg/kg/injection, schedule: Q01DX009 (ip), vehicle: water) was 3 of 6 and 5 of 6.

On to `Cc1cc(C=C2C(=O)NC(=S)NC2=O)cc(C)c1O`, for which the T/C (dose: 50.0 mg/kg/injection, schedule: Q01DX005 (ip), vehicle: saline with Tween-80) was 107, 110, 120, 126 % of control [5 of 6 alive]. For the same compound, the survivor count is 1 of 5, 2 of 6, 5 of 6 (dose: 100.0 mg/kg/injection, schedule: Q01DX005 (ip), vehicle: saline with Tween-80) and 0 of 5 (dose: 200.0 mg/kg/injection, schedule: Q01DX005 (ip), vehicle: saline with Tween-80).

For the compound `Nc1ccc(-c2cc3ccc(C4=NCCN4)cc3[nH]2)cc1`, the T/C is 127 % of control under setting [3] and 129 % of control under setting [4].

As to `O=C1OCCC(O)=C1C=NCc1ccccc1`, the survivor count (dose: 200.0 mg/kg/injection, schedule: Q04DX003 (ip), vehicle: Klucel (hydroxypropylcellulose) (HPC)) is 6 of 6 and the survivor count (dose: 400.0 mg/kg/injection, schedule: Q04DX003 (ip), vehicle: Klucel (hydroxypropylcellulose) (HPC)) is recorded as 5 of 6.
